We go through 1 sequence from paper PMC5457438.

A negative result means that nothing was seen under these conditions. At least one verdict rests on a figure or table, not on a statement of the authors. Protein sequences can lack the tags named with them.

In the data set the test system is T1, MaeR D54A (Lacticaseibacillus (Lactobacillus) casei BL23).
T1 sequence (looked up): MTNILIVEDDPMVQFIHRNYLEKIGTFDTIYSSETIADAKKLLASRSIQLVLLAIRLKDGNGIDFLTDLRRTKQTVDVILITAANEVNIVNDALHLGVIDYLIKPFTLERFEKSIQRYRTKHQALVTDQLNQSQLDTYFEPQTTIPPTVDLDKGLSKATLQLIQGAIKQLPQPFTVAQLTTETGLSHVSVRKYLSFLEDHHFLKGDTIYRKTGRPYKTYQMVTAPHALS
Briefly: EMSA. The note with it: acetylP 1-10 mM; EMSA: 15 ul of 2.5 mM Tris-HCl pH 7.5, 100 mM NaCl, 25 mM MgCl2, 0.25 mM EDTA, 0.25 mM DTT, 10% glycerol, 1.5 ug salmon sperm DNA, 100 ng DNA, 62-375 ng protein; recombinant protein; residues 1-229; protein details: His tag (pQE80-type vector, HisTrap purified); probe letters rebuilt from the primers and the genome. On the technique in general: In EMSA bound probe runs differently from free probe, usually more slowly.

For the sequence “CGTTGATTTGTTGGGTGTAACCGTCTTGTTCTCCATGTTTCCTTACCCCCAATCTTTTGTTACTTACAGCATATTGTAAGCGCTTCATCAGGGGAAGATTATTTAACTTATTAAACCATAAACCCATTTATTTAAGCGATTGTTTTACTATTCACAAGATGGTTTCTCTACTGAACAGGAGTATGATCATGAAAATAAAAGGATGGCGGCTATGGGGCT (double strand) [mae promoter (maeP-maeK intergenic region, 219 bp)]”, the binding result was “no binding”.
